Measurements published in the supplement of paper PMC10849652.
The other results are listed elsewhere or left out.

Protein sequences, listed by entry. Tags and fused reporters are not part of them. Lines headed by an entry give the natural chain unless they say otherwise; changes in a name come on top.
UniProt Q9H2H9: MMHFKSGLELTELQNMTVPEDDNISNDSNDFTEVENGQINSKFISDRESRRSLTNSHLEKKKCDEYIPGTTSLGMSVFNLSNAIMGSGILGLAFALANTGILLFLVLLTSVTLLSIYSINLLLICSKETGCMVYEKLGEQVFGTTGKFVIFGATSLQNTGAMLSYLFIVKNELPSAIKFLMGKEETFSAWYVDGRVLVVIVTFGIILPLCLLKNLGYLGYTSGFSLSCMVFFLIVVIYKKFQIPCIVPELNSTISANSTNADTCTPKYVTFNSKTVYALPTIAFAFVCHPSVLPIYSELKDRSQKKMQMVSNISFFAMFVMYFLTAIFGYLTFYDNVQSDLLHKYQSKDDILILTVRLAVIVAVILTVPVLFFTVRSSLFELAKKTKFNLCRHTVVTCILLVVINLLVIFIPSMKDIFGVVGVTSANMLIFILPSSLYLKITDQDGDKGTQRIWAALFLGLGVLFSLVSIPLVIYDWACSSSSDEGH
UniProt Q8TAD4: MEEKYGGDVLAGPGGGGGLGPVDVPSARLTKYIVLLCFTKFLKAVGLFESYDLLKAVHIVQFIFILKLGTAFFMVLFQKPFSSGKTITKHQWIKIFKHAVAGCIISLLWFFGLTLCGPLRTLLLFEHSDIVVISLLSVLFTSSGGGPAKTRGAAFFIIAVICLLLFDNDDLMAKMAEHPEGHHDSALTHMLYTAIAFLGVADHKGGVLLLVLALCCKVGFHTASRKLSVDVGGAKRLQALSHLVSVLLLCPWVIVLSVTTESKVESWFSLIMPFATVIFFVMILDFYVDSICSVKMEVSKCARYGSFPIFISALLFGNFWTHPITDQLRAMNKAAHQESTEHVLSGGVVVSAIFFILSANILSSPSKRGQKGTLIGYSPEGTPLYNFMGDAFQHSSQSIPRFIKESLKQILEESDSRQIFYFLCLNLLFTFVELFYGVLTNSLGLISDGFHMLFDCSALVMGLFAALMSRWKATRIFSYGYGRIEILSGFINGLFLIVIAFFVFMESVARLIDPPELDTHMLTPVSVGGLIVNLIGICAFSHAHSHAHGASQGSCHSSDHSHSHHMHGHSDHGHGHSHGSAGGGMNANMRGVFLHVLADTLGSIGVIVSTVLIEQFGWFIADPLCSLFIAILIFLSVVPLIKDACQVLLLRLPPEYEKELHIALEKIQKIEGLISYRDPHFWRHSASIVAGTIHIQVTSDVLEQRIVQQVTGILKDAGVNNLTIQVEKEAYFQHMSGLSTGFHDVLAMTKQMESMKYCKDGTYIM
UniProt P11166: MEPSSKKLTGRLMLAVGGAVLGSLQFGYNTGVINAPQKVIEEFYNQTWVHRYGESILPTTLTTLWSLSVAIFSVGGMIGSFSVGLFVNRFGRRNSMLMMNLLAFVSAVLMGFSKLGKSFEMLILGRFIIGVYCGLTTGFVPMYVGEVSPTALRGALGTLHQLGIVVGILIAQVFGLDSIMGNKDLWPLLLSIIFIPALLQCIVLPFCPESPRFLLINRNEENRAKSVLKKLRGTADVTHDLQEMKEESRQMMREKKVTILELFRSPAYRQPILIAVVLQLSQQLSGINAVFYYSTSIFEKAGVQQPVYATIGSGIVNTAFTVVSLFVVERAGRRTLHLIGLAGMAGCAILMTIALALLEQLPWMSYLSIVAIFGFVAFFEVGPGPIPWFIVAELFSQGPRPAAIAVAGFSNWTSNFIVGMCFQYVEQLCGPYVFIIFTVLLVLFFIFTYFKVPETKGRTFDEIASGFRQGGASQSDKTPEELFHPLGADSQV
UniProt Q9UBX3: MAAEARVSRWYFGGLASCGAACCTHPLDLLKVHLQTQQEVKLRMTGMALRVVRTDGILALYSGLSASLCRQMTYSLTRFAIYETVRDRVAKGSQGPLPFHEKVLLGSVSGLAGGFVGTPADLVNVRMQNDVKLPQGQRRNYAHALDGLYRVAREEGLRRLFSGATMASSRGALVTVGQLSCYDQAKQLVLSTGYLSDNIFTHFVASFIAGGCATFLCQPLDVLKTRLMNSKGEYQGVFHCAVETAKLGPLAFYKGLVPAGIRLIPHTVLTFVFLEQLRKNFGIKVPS
UniProt P12236: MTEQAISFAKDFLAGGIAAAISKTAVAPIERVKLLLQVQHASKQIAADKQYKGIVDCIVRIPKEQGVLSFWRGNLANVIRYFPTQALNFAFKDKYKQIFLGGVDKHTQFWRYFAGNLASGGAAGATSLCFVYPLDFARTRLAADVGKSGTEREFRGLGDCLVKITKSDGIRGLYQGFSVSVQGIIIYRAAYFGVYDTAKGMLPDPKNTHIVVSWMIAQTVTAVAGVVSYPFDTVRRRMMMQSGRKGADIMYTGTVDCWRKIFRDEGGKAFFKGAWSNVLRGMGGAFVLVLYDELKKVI
UniProt O75387: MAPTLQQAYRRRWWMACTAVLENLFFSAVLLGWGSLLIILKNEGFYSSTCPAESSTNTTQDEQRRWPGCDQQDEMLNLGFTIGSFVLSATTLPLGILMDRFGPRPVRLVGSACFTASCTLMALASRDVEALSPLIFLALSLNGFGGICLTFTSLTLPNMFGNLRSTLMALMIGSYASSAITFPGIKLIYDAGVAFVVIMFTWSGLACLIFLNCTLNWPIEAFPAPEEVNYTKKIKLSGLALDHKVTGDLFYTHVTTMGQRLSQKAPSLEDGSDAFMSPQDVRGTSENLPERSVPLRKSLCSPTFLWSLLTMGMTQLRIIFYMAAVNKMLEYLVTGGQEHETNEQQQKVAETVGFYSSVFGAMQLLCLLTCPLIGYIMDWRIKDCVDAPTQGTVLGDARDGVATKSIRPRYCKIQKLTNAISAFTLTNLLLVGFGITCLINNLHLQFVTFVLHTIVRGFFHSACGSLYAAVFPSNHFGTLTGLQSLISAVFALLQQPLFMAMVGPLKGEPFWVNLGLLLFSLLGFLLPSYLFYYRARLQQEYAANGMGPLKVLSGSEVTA
UniProt Q9H1U9: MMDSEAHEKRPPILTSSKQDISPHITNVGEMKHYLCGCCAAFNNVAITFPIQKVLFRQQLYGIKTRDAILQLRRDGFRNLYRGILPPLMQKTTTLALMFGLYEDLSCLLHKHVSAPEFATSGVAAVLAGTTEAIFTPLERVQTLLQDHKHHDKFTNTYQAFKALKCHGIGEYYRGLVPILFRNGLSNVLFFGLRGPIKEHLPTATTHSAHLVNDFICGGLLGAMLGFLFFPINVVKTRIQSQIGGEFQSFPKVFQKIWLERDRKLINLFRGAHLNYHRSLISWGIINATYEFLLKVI
UniProt Q9UHW9: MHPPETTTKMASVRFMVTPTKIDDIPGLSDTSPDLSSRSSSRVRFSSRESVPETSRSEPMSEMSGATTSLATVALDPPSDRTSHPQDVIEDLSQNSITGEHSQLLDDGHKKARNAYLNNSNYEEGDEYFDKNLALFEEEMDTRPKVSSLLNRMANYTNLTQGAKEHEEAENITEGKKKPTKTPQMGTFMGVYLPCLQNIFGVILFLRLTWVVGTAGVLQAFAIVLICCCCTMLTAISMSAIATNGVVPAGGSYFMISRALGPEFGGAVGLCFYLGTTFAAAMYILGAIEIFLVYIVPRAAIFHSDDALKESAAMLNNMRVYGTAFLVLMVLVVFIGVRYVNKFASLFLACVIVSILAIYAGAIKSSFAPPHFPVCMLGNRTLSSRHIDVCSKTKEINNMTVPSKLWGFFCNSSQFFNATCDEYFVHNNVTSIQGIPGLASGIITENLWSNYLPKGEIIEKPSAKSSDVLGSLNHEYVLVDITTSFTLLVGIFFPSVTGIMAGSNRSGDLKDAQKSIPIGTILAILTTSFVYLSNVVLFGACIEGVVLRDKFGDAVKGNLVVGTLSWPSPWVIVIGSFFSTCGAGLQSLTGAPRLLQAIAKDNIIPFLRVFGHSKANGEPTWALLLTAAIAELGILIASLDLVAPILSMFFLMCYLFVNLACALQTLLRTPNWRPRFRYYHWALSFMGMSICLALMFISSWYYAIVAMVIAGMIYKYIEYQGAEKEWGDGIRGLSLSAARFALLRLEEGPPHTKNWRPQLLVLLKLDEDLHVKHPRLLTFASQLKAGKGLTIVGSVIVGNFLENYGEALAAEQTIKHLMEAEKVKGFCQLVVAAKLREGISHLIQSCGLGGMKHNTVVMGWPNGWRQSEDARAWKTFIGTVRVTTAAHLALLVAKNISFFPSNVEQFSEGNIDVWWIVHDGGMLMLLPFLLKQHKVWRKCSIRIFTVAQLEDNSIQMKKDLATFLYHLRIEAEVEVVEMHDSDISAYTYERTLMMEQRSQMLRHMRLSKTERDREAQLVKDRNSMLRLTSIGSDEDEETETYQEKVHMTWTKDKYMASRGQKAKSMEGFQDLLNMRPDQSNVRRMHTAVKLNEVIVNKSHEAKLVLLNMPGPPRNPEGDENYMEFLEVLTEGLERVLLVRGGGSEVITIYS
UniProt O75746: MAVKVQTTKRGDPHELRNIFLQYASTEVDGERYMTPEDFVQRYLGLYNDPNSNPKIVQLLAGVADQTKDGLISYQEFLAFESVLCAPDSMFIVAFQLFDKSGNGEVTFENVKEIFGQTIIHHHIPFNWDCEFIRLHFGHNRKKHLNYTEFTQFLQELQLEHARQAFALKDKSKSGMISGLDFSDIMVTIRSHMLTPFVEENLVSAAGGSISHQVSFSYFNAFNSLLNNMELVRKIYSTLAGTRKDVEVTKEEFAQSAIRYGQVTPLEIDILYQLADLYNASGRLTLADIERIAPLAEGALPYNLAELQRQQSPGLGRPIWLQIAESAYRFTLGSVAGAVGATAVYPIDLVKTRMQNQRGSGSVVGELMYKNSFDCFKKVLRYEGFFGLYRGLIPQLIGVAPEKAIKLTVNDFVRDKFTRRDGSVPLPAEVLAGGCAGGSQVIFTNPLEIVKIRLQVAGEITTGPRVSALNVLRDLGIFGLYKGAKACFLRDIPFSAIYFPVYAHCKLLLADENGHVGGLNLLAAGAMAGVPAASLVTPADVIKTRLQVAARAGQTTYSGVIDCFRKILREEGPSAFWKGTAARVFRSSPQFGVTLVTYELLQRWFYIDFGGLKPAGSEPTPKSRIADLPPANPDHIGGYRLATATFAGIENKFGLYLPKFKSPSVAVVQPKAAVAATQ
UniProt O00400: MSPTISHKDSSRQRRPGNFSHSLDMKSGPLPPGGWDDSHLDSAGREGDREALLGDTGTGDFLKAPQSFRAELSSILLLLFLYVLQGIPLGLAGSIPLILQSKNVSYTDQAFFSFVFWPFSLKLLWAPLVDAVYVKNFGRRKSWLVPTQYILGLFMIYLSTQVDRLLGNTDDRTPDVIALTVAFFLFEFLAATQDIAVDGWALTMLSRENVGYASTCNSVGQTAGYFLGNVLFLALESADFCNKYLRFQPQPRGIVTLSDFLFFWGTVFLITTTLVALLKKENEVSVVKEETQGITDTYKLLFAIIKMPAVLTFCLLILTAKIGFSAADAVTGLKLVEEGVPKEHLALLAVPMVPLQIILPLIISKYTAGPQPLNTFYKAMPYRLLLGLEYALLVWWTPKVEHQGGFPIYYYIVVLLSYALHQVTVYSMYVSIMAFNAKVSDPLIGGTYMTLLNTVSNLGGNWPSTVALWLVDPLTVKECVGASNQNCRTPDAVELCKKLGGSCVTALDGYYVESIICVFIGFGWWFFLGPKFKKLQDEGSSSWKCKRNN
UniProt Q5BKX6: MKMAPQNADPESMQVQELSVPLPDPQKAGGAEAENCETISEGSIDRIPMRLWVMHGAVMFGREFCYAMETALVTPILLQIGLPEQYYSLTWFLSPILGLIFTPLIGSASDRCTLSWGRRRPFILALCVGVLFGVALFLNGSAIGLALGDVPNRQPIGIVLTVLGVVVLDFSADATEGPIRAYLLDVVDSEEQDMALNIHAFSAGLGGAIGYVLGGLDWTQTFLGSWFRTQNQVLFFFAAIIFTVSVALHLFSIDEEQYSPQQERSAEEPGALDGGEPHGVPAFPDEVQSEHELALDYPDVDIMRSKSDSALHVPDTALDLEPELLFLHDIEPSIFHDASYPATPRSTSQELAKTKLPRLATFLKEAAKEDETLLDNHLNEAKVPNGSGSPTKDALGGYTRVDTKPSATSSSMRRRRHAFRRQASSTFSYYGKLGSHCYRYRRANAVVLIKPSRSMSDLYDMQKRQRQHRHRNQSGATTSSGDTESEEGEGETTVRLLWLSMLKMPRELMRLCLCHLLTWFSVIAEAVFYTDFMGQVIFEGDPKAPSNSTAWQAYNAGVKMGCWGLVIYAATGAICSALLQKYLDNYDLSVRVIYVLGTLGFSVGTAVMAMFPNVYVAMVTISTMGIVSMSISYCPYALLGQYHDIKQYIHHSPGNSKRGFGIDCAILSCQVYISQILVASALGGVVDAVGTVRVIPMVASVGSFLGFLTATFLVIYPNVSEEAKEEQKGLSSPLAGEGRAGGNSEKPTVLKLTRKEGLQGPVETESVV

Assays:
Assay in all cases: log2 fold change, soluble protein after heating vs DMSO (PISA); higher = thermal stabilisation; K562 cells, 10 uM, 30 min; active = over 0.2 and 3.5 SD of the protein, either way, in both replicates (recomputed)
[1] = compound: CS(=O)(=O)c1ccc(-c2cnc(N)c(C(=O)Nc3ccccc3)n2)cc1
Summary of the method: (§1)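 K562 cells at 2×10^6 cells/mL were given 10 μM compound for 30 min. Aliquots then went through 3 min of heating across 48°C-58°C, were pooled, and were extracted in PBS with 0.5% NP-40 at 4°C, and the supernatant after 21,000xg for 90 min was quantified by TMTpro 16plex LC-MS/MS with channel sums equalised. Thermal stability relative to control samples, from duplicates, is given as log2 fold change.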

[2] = compound: C[C@@H](Oc1cc(-c2cnn(C3CCNCC3)c2)cnc1N)c1c(Cl)ccc(F)c1Cl [crizotinib]
Summary of the method: as §1

[3] = compound: C[C@@H]1COCCN1C2=NC(=NC(=C2)C3(CC3)S(=O)(=O)C)C4=C5C=CNC5=CC=C4
Summary of the method: as §1

[4] = compound: C[C@H](C1=CC=C(C=C1)C(=O)NC2=C3C=CNC3=NC=C2)N
Summary of the method: as §1

[5] = compound: C[C@H](Nc1ncnc2nc[nH]c12)c1cc2cccc(Cl)c2c(=O)n1-c1ccccc1 [duvelisib]
Summary of the method: as §1

[6] = compound: Cc1cc(Nc2cc(CN3CCOCC3)c3nc(C)c(Cc4ccc(Cl)cc4F)n3n2)n[nH]1 [gandotinib]
Summary of the method: as §1

[7] = compound: Cc1cc(Nc2cc(N3CCN(C)CC3)nc(Sc3ccc(NC(=O)C4CC4)cc3)n2)n[nH]1 [tozasertib]
Summary of the method: as §1

[8] = compound: Cc1cc(SCc2sc(-c3ccc(C(F)(F)F)cc3)nc2C)ccc1OCC(=O)O
Summary of the method: as §1

[9] = compound: Cc1ccc(-n2nc(C(C)(C)C)cc2NC(=O)Nc2ccc(OCCN3CCOCC3)c3ccccc23)cc1 [doramapimod]
Summary of the method: as §1

[10] = compound: Cc1ccc(C(=O)N(CCCN)[C@@H](c2nc3cc(Cl)ccc3c(=O)n2Cc2ccccc2)C(C)C)cc1 [ispinesib]
Summary of the method: as §1

[11] = compound: Cc1ccc(NC(=O)c2ccc(CN3CC[C@H](N(C)C)C3)c(C(F)(F)F)c2)cc1Nc1nccc(-c2cncnc2)n1 [bafetinib]
Summary of the method: as §1

[12] = compound: Cc1cccc(CC(=O)N2CCc3c2ccc(-c2cn(C)c4ncnc(N)c24)c3F)n1
Summary of the method: as §1

[13] = compound: Cc1cn(-c2cc(NC(=O)c3ccc(C)c(Nc4nccc(-c5cccnc5)n4)c3)cc(C(F)(F)F)c2)cn1 [nilotinib]
Summary of the method: as §1

[14] = compound: Cc1nc(Nc2n[nH]c3c2CN(C(=O)N[C@H](CN(C)C)c2ccccc2)C3(C)C)c2sccc2n1
Summary of the method: as §1

[15] = compound: Cc1nc(Nc2ncc(C(=O)Nc3c(C)cccc3Cl)s2)cc(N2CCN(CCO)CC2)n1 [dasatinib]
Summary of the method: as §1

[16] = compound: Cc1ncc(-c2ccnc(Nc3ccc(S(C)(=O)=O)cc3)n2)n1C(C)C
Summary of the method: as §1

[17] = compound: Cn1cc(-c2ccc3c(c2)CCN3C(=O)Cc2cccc(C(F)(F)F)c2)c2c(N)ncnc21
Summary of the method: as §1

[18] = compound: Cn1cc(-c2ccc3nnc(C(F)(F)c4ccc5ncccc5c4)n3n2)cn1
Summary of the method: as §1

[19] = compound: Cn1cncc1[C@@](N)(c1ccc(Cl)cc1)c1ccc2c(c1)c(-c1cccc(Cl)c1)cc(=O)n2C [tipifarnib]
Summary of the method: as §1

[20] = compound: FC(F)(F)c1ccc(/C=C/c2nc(COc3ccc(CCCCn4ccnn4)cc3)co2)cc1 [mubritinib]
Summary of the method: as §1

Measured: log2 fold change

SLC38A1 (UniProt Q9H2H9)
inactive: [1] 0.014 | [2] 0.136 | [3] 0.109 | [4] 0 | [5] 0.028 | [6] -0.13 | [7] 0.005 | [8] -0.074 | [9] 0.027 | [10] -0.038 | [11] 0.004 | [12] 0.002 | [13] 0.04 | [14] -0.023 | [15] 0.067 | [16] 0.001 | [17] -0.007 | [18] -0.011 | [19] -0.009 | [20] 0.047

SLC35B2 (UniProt Q8TB61)
inactive: [1] 0.026 | [2] -0.017 | [3] 0.073 | [4] -0.021 | [5] 0.024 | [6] -0.062 | [7] -0.03 | [8] -0.02 | [9] 0.002 | [10] 0.003 | [11] -0.069 | [12] -0.004 | [13] -0.018 | [14] 0.004 | [15] 0.028 | [16] -0.002 | [17] 0.011 | [18] 0.015 | [19] -0.052 | [20] 0.008

SLC29A1 isoform 2 (UniProt Q99808)
inactive: [1] 0.046 | [2] 0.119 | [3] 0.044 | [4] -0.081 | [5] 0.097 | [6] -0.118 | [7] -0.003 | [8] -0.041 | [9] -0.065 | [10] 0.165 | [11] 0.047 | [12] -0.005 | [13] 0.018 | [14] 0.046 | [15] 0.046 | [16] -0.036 | [17] 0.034 | [18] -0.051 | [19] -0.031 | [20] 0.021

SLC30A5 (UniProt Q8TAD4)
inactive: [1] -0.036 | [2] 0.051 | [3] 0.095 | [4] -0.001 | [5] 0.028 | [6] -0.155 | [7] -0.05 | [8] -0.004 | [9] -0.078 | [10] -0.024 | [11] 0.041 | [12] -0.023 | [13] -0.09 | [14] 0.141 | [15] -0.065 | [16] -0.017 | [17] 0.123 | [18] -0.038 | [19] -0.03 | [20] 0.026

SLC2A1 (UniProt P11166)
inactive: [1] 0.057 | [2] 0.099 | [3] 0.007 | [4] -0.084 | [5] 0.077 | [6] -0.052 | [7] -0.008 | [8] -0.088 | [9] 0.011 | [10] 0.072 | [11] 0.019 | [12] -0.046 | [13] 0.035 | [14] -0.001 | [15] -0.002 | [16] 0.013 | [17] 0.025 | [18] -0.01 | [19] 0.018 | [20] 0.033

SLC25A10 isoform 2 (UniProt Q9UBX3)
inactive: [1] -0.047 | [2] 0.08 | [3] -0.028 | [4] -0.069 | [5] -0.038 | [6] 0.018 | [7] 0.017 | [8] -0.004 | [9] -0.04 | [10] -0.009 | [11] 0.017 | [12] 0.031 | [13] -0.02 | [14] 0.008 | [15] 0.017 | [16] 0.01 | [17] 0.016 | [18] -0.031 | [19] 0.018 | [20] -0.003

SLC25A6 (UniProt P12236)
inactive: [1] -0.007 | [2] 0.075 | [3] 0.037 | [4] -0.032 | [5] 0.042 | [6] -0.027 | [7] -0.016 | [8] 0.002 | [9] -0.036 | [10] -0.002 | [11] -0.033 | [12] -0.013 | [13] -0.029 | [14] 0.048 | [15] 0.045 | [16] -0.038 | [17] 0.004 | [18] 0.023 | [19] -0.011 | [20] -0.011

SLC43A1 (UniProt O75387)
inactive: [1] 0.033 | [2] 0.026 | [3] 0.205 | [4] -0.073 | [5] 0.097 | [6] 0.045 | [7] 0.037 | [8] -0.07 | [9] 0.013 | [10] 0.082 | [11] -0.006 | [12] -0.044 | [13] 0.009 | [14] 0.05 | [15] -0.047 | [16] 0.034 | [17] 0.064 | [18] 0.011 | [19] 0 | [20] 0.049

SLC25A51 (UniProt Q9H1U9)
inactive: [1] 0.022 | [2] 0.033 | [3] 0.005 | [4] 0 | [5] 0.036 | [6] 0 | [7] 0.033 | [8] -0.008 | [9] 0 | [10] 0.004 | [11] -0.09 | [12] -0.079 | [13] 0.035 | [14] 0.007 | [15] 0.032 | [16] -0.005 | [17] 0.018 | [18] 0.015 | [19] 0.057 | [20] 0.017

SLC12A6 isoform 2 (UniProt Q9UHW9)
inactive: [1] 0.08 | [2] -0.013 | [3] 0.042 | [4] -0.098 | [5] 0.056 | [6] -0.051 | [7] -0.025 | [8] -0.047 | [9] -0.027 | [10] -0.132 | [11] 0.01 | [12] 0.045 | [13] 0.036 | [14] -0.077 | [15] 0 | [16] -0.012 | [17] -0.014 | [18] -0.021 | [19] 0.002 | [20] 0.065

SLC20A1 (UniProt Q8WUM9)
inactive: [1] 0.044 | [2] 0.015 | [3] -0.037 | [4] -0.013 | [5] 0.145 | [6] -0.038 | [7] -0.085 | [8] -0.018 | [9] -0.003 | [10] -0.057 | [11] -0.017 | [12] -0.065 | [13] -0.004 | [14] -0.058 | [15] 0.032 | [16] 0.01 | [17] -0.004 | [18] -0.035 | [19] 0.001 | [20] 0.035

SLC30A1 (UniProt Q9Y6M5)
inactive: [1] 0.035 | [2] 0.104 | [3] 0.115 | [4] -0.096 | [5] 0.081 | [6] -0.005 | [7] -0.041 | [8] -0.01 | [9] -0.001 | [10] 0.123 | [11] 0.027 | [12] -0.05 | [13] 0.015 | [14] -0.024 | [15] 0.059 | [16] -0.023 | [17] -0.007 | [18] -0.034 | [19] 0.096 | [20] 0.041

Reprinted from above (3 entries):
SLC43A1 (UniProt O75387)
inactive: [1] 0.033 | [2] 0.026 | [3] 0.205 | [4] -0.073 | [5] 0.097 | [6] 0.045 | [7] 0.037 | [8] -0.07 | [9] 0.013 | [10] 0.082 | [11] -0.006 | [12] -0.044 | [13] 0.009 | [14] 0.05 | [15] -0.047 | [16] 0.034 | [17] 0.064 | [18] 0.011 | [19] 0 | [20] 0.049

SLC25A51 (UniProt Q9H1U9)
inactive: [1] 0.022 | [2] 0.033 | [3] 0.005 | [4] 0 | [5] 0.036 | [6] 0 | [7] 0.033 | [8] -0.008 | [9] 0 | [10] 0.004 | [11] -0.09 | [12] -0.079 | [13] 0.035 | [14] 0.007 | [15] 0.032 | [16] -0.005 | [17] 0.018 | [18] 0.015 | [19] 0.057 | [20] 0.017

SLC12A6 isoform 2 (UniProt Q9UHW9)
inactive: [1] 0.08 | [2] -0.013 | [3] 0.042 | [4] -0.098 | [5] 0.056 | [6] -0.051 | [7] -0.025 | [8] -0.047 | [9] -0.027 | [10] -0.132 | [11] 0.01 | [12] 0.045 | [13] 0.036 | [14] -0.077 | [15] 0 | [16] -0.012 | [17] -0.014 | [18] -0.021 | [19] 0.002 | [20] 0.065

Continuation:

SLC25A12 (UniProt O75746)
inactive: [1] 0.035 | [2] 0.069 | [3] 0.01 | [4] -0.037 | [5] 0.021 | [6] -0.036 | [7] -0.035 | [8] -0.037 | [9] -0.015 | [10] 0.023 | [11] -0.045 | [12] -0.021 | [13] -0.028 | [14] 0.028 | [15] 0.021 | [16] -0.03 | [17] 0.007 | [18] 0.013 | [19] 0.042 | [20] -0.063

SLC33A1 (UniProt O00400)
inactive: [1] -0.008 | [2] 0.062 | [3] 0.086 | [4] -0.095 | [5] 0.05 | [6] -0.025 | [7] -0.019 | [8] -0.002 | [9] -0.055 | [10] 0.121 | [11] -0.003 | [12] -0.051 | [13] 0.031 | [14] 0.022 | [15] 0.045 | [16] -0.067 | [17] 0.001 | [18] -0.098 | [19] 0.013 | [20] -0.012

SLC26A6 (UniProt Q9BXS9)
inactive: [1] 0.041 | [2] 0.102 | [3] 0.117 | [4] -0.038 | [5] -0.01 | [6] -0.036 | [7] -0.019 | [8] 0.043 | [9] -0.017 | [10] -0.005 | [11] 0.023 | [12] -0.11 | [13] 0.082 | [14] -0.026 | [15] 0.067 | [16] -0.032 | [17] 0.065 | [18] -0.066 | [19] 0.09 | [20] 0.024

SLC45A4 isoform 3 (UniProt Q5BKX6)
inactive: [1] 0.23 | [2] 0.037 | [3] -0.024 | [4] -0.024 | [5] -0.005 | [6] 0.011 | [7] -0.096 | [8] -0.06 | [9] -0.043 | [10] -0.045 | [11] 0.124 | [12] -0.052 | [13] 0.101 | [14] -0.031 | [15] 0.084 | [16] 0.026 | [17] 0.112 | [18] -0.05 | [19] 0.114 | [20] 0.106
